Test results as given in patent US20040115205A1.
These are yes or no findings as the source states them, for the method shown. Some binding calls cover weakened binding; strength is not graded here.

By UniProt entry, the sequences of proteins in these tests, tags left out. Residues count along the entry.
UniProt P43121, residues 24-559: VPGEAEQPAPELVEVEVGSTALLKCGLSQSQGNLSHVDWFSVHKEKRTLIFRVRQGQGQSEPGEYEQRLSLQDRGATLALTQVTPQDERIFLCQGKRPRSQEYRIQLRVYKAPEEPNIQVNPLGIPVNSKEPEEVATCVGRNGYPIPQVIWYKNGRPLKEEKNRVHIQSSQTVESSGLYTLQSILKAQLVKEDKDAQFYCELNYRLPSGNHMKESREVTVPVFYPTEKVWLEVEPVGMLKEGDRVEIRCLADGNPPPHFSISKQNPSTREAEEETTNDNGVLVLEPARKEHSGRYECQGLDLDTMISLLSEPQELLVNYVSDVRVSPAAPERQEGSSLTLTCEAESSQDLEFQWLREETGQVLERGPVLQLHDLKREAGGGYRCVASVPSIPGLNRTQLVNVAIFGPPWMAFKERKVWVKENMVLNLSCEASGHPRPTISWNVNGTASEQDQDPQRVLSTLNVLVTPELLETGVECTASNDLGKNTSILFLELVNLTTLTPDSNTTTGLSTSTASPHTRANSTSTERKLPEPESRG

B1: anti-MUC18 antibody c3.45 (antibody, V domains shown)
VH: QVQLVQSGAEVKKPGASVKVSCKASGYTFFSYGFSWVRQAPGQGLEWLGWISAYNGNTNYAQKLQGRVTMTTDTSTSTAYMELRSLRSDDTAVYYCARETKVRGVHYYGMDVWGQGTTVTVSS
VL: DIVMTQSPDSLAVSLGERATIICKSSQSILYSSNNKNYLGWYQQKPGQPPKLLIYWASTRESGVPARFSGSGSGTDFTLTINSLQAEDVAVYYCQQYYSTPRSFGQGTMVEIK
B2: anti-MUC18 antibody c6.2 (antibody, V domains shown)
VH: QVQLQESGPGLVKPSETLSLTCTVSGGSISTYYWSWIRQPPGKGLEWIGYIYYTGNTYYNPSLKSRVTVSVDTSKNQFSLKLNSVTAADTAVYYCARDPGQWLVPDAFDIWGQGTMVSVSS
VL: DIVMTQSPLSLPVIPGEPASISCRSSQSLLQSNGNNYLDWYLQKPGQSPQLLIYLGSNRASGVPDRFSGSGSGTDFTLKISRVEADDVGIYYCMQALQIPLTFGGGTKVEIK
B3: anti-MUC18 antibody c3.22 (antibody, V domains shown)
VH: QVQLQESGPGLVKPSQTLSLTCTVSGGSISSGGYYWTWIRQHPGKGLEWIGFIYYSGSTYYNPSLKSRVTISVDTSKNQFSLKLSSVTAADTAVYYCAREGDGFDYWGQGTLVTVSS
VL: DIQMTQSPSSLSASVGDRVTITCRASQGIRNDLGWYQQKPGKAPKRLIYAASSLQSGVPSRFSGSGSGTEFTLTISSLQPEDFATYYCLQHNSYPLTFGGGTKVEIK
B4: anti-MUC18 antibody c6.9 (also independently cloned as c6.12) (antibody, V domains shown)
VH: QVQLEQSGPGLVKPSETLSLTCTVSGGSISSGTYHWSWIRQHPGRGLEWIGYIYYSGSTYHNPSLKSRITISVDTSKNQFSLKLSSVTAADTAVYYCARGGDGYRYWGQGTLVTVSS
VL: EIVMTQSPATLSVSPGERATLSCRASQSISNNFAWYQQKPGQAPRLLIFGASTRATGIPARFSGSGSGTEFTLTISSLQSEDFAVYYCQQYNNWPRTFGQGTKVEIK
B5: anti-MUC18 antibody c3.10 (antibody, V domains shown)
VH: QVQLQESGPGLVKPSETLSLTCTVSGGSISSYYWSWIRQPPGKGLEWIGYIYYTWTTNYNPSLKSRVTISVDTSKNQFSLRLSSVTAADTALYYCARDQGQWLLPDAFDIWGQGTMVTVSS
VL: DIQMTQSPSSLSASVGDRVTITCRASQSISNYLNWYQQKPGKAPKLLIYGASSLQSGVPSRFSGSGSGTDFTLTISSLQPEDFATYYCRQSYSTPPECSFGQGTKLEIK
B6: anti-MUC18 antibody c3.27 (antibody, V domains shown)
VH: QVQLQESGPGLVKPSETLSLTCTVSGGSISSYYWSWIRQPPGKGLEWIGYIYYTWTSNYNPSLKSRVTISVDTSKNQFSLRLSSVTAADTAVYYCARDQGQWLLPDAFDIWGQGTMVTVSS
VL: DIQMTQSPSSLSASVGDRVTITCRASQGIRNDLGWYQQKPGKAPKRLIYAASSLQSGVPSRFSGSGSGTEFTLTISSLQPEDFATYYCLQHNSYPWTFGQGTKVEIK

Molecular target: MUC18 antigen coated on ELISA plates (hybridoma screening) (human) (UniProt P43121)
Assay: antigen-specific ELISA of hybridoma supernatants on antigen coated plates

binding, binds:
B1, B2, B3, B4, B5, B6
